Results taken from patent US7060733B2, “Methods for treating pancreatitis with curcumin compounds and inhibitors of reactive oxygen species” (The Regents of the University of California, priority 2002, dated 2006).

Assay: Solubility of curcumin compounds
Type: physicochemical

## COc1cc(/C=C/C(=O)CC(=O)/C=C/c2ccc(O)c(OC)c2)ccc1O [curcumin]
Water or ethanol
  solubility in water or ethanol: insoluble
Water or saline
  solubility in water or saline: not soluble
